Source: publication PMC6151265

Chains of the proteins cited; added tags and fusions are not shown. Lines headed by an entry give the natural chain unless they say otherwise; changes in a name come on top.
UniProt P11279: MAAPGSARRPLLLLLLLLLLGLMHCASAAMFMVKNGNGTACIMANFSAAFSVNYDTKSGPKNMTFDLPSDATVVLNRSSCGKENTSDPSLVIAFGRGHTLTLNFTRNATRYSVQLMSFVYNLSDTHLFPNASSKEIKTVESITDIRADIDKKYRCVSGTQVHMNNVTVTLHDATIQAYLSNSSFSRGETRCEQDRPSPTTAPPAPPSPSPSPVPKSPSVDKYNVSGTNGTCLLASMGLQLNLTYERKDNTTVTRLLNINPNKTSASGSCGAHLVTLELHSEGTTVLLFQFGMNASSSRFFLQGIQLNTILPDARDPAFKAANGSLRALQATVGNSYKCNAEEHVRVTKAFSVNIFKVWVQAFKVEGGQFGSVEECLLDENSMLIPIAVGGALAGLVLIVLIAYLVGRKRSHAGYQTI

Tests used:
hLAMP-1^406-417 (human) = biological target: T1, hLAMP-1^406-417 (human) (UniProt P11279); test: two-hybrid; Y2HGold yeast; cargo tails in pGBKT7 against AP-3 or AP-1 subunits; growth on −His (+2 or 10 mM 3AT) plates, 3–5 days at 30°C
T1 sequence: GRKRSHAGYQTI

hPMEL^623-668 (human) = biological target: T2, hPMEL^623-668 (human) (UniProt P40967); test: as above
T2 sequence: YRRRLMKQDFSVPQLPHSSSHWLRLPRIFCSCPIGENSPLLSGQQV

[1] = biological target: T3, Rab4 (endogenous, melanocytes) (mouse (endogenous in melan-Ink melanocytes)) (UniProt P56371); test: co-IP; endogenous Rab4 from melan-Ink melanocyte lysate, anti-Rab4 antibody and Protein G–Sepharose 4B beads overnight at 4°C; immunoblotting
T3 sequence: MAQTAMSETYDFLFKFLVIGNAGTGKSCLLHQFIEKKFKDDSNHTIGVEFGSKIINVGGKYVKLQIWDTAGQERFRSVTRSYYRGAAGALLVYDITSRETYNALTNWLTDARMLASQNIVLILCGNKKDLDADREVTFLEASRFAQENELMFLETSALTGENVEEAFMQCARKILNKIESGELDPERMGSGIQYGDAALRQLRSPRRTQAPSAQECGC

GFP–rabenosyn-5 = biological target: T4, GFP–rabenosyn-5 (UniProt Q9H1K0); test: co-IP; GFP-tagged bait expressed in HeLa cells, lysate (20 mM HEPES pH7.4, 100 mM KCl, 10 mM MgCl2, 5 mM EDTA, 1% Triton X-100, 100 µM GTPγS) on GFP-Trap_A beads 4–5 h at 4°C; immunoblotting of endogenous partners
T4 sequence: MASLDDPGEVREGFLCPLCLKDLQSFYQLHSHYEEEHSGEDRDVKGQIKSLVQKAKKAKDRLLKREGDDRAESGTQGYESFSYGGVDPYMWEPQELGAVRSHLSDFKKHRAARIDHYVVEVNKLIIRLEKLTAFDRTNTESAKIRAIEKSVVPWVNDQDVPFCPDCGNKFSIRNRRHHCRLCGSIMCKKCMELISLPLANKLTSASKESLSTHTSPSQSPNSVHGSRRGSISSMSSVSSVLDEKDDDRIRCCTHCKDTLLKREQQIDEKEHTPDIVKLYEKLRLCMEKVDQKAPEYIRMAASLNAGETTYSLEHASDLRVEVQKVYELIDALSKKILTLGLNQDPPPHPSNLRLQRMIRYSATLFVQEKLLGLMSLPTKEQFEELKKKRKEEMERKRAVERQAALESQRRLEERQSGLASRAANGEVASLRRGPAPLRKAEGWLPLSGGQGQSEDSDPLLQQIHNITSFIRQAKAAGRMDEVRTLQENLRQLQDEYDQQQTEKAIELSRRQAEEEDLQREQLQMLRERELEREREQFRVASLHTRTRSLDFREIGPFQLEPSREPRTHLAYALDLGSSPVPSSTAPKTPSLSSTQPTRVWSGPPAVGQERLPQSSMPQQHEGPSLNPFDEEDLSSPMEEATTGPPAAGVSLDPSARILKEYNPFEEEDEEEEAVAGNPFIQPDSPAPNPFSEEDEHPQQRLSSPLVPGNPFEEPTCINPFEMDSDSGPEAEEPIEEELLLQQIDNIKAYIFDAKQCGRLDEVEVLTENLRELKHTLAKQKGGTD

binding (hPMEL^623-668 (human)) | further results | Substance
no binding | binding (hLAMP-1^406-417 (human)): binds | AP-3 µ3 subunit (yeast two-hybrid)
no binding | – | AP-1 σ1 subunit (yeast two-hybrid)
no binding | – | AP-3 σ3 subunit (yeast two-hybrid)
no binding | – | AP-1 γ subunit (yeast two-hybrid)
– | binding [1]: binds | AP-3 (endogenous, melanocytes) (mouse (endogenous in melanocytes)) (complex)
– | binding (GFP–rabenosyn-5): binds | AP-3 (endogenous, HeLa) (human (endogenous in HeLa)) (complex)
no binding | binding (hLAMP-1^406-417 (human)): binds | AP-1 µ1 subunit (yeast two-hybrid)

Results are given in words; binding and its absence hold for the method and conditions named. For part of these data: A result given as binding can be weak or reduced; the word gives no strength. For part of these data: In cells and extracts the contact can be indirect. For part of these data: Sequences can lack the tags named with a protein.
